Data taken from PubChem BioAssay AID1053133, deposited by Broad Institute (2014).

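Vaccinia-infected cells with a two-color viral stage reporter; Venus fluorescence read on a plate reader; the cell line is not named here; timing not stated here.
The test concentration is not given here.
Percent change in Venus reporter signal; lower (more negative) values mean stronger inhibition of that viral stage.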

Values are in %.
The controls that fix the scale are not given here.
Common to all entries: measured here: Venus reporter, other viral stage.
This is a side read-out of the assay, for part of the compounds, not drawn at random.

compound | activity change (Venus) (%)
C[C@@H]1CN([C@@H](C)CO)C(=O)Cc2cc(NS(C)(=O)=O)ccc2O[C@@H]1CN(C)Cc1ccc(-c2ccccc2)cc1 | -46.43
COc1ccccc1NC(=O)N1CC(=O)N2[C@H](CO)[C@@H](c3ccc(-c4ccc(F)cc4)cc3)[C@H]2C1 | -31.69
C[C@H](CO)N1C[C@H](C)[C@H](CN(C)Cc2ccc3c(c2)OCO3)OCCCC[C@H](C)Oc2ccc(NC(=O)Nc3ccc(F)cc3)cc2C1=O | -57.35
COc1ccc(C#Cc2ccc3c(c2)O[C@H](CN(C)C(=O)c2ccccn2)[C@@H](C)CN([C@H](C)CO)S3(=O)=O)cc1 | -27.45
N#C[C@@H]1[C@@H](c2ccc(C#Cc3cccc(F)c3)cc2)[C@H](CO)N1C(=O)C1CCCC1 | -31.51
O=C(C[C@H]1CC[C@@H]2[C@H](COC[C@H](O)CN2Cc2cc(F)ccc2F)O1)N[C@H]1CCN(Cc2ccccc2)C1 | -34.29
C[C@H](CO)N1C[C@H](C)[C@@H](CN(C)C(=O)Nc2cccc(Cl)c2Cl)OCc2ccccc2-c2c(n(C)c3ccccc23)C1=O | -38.98
C[C@H](CO)N1C[C@H](C)[C@H](CN(C)C(=O)CN(C)C)Oc2cc(C#Cc3ccccc3)ccc2S1(=O)=O | -36.07
C[C@H](CO)N1C[C@H](C)[C@@H](CN(C)Cc2ccncc2)Oc2cc(-c3ccccc3F)ccc2S1(=O)=O | -51.29
O=C(CN1CCOCC1)N1CCCCN2[C@H](CO)[C@@H](c3ccc(C#Cc4ccccc4)cc3)[C@H]2C1 | -37.28
C[C@@H]1CN([C@H](C)CO)C(=O)c2cc(C3=CCCCC3)cnc2O[C@H]1CN(C)Cc1cccc(F)c1 | -39.86
CC(C)CC#Cc1cnc2c(c1)C(=O)N([C@@H](C)CO)C[C@@H](C)[C@H](CN(C)Cc1ccccc1F)O2 | -30.63
Cc1ccc(S(=O)(=O)Nc2ccc3c(c2)C(=O)N([C@H](C)CO)C[C@@H](C)[C@@H](CN(C)Cc2ccc(C(F)(F)F)cc2)OCCCC[C@H](C)O3)cc1 | -73.81
COc1ccc(OC(=O)N(C)C[C@H]2OCc3ccccc3-c3c(n(C)c4ccccc34)C(=O)N([C@@H](C)CO)C[C@@H]2C)cc1 | -46.23
COc1ccc(S(=O)(=O)Nc2ccc3c(c2)CC(=O)N([C@@H](C)CO)C[C@H](C)[C@H](CN(C)Cc2ccc(Oc4ccccc4)cc2)O3)cc1 | -31.69
C[C@H](CO)N1C[C@H](C)[C@@H](CN(C)C(=O)NC2CCCCC2)OCCCC[C@H](C)Oc2ccc(NC(=O)C3CCCCC3)cc2C1=O | -29.19
CO[C@H]1CN(C)C(=O)c2cc(NC(=O)Nc3ccc(Cl)cc3)ccc2OC[C@@H](C)N(C)C[C@@H]1C | -22.24
COc1cccc(S(=O)(=O)N(C)C[C@@H]2Oc3cc(C4=CCCCC4)ccc3S(=O)(=O)N([C@H](C)CO)C[C@H]2C)c1 | -46.9
Cc1noc(C)c1NC(=O)N(C)C[C@@H]1Oc2ncc(C#Cc3ccc(C(F)(F)F)cc3)cc2C(=O)N([C@H](C)CO)C[C@@H]1C | -36.64
C[C@@H]1CN([C@@H](C)CO)C(=O)Cc2cc(NS(=O)(=O)c3ccc(Cl)cc3)ccc2O[C@H]1CN(C)CC1CCCCC1 | -58.31
O=C(C[C@H]1C[C@@H]2c3cc(NC(=O)Nc4ccc(C(F)(F)F)cc4)ccc3O[C@@H]2[C@@H](CO)O1)NCC1CC1 | -27.82
C[C@@H]1CN([C@@H](C)CO)C(=O)c2cc(N(C)C)ccc2O[C@@H](C)CCCCO[C@H]1CN(C)Cc1ccc(C(F)(F)F)cc1 | -53.83
O=C(Cc1ccccc1)N1CC(=O)N2[C@H](CO)[C@@H](c3ccc(-c4cccc(F)c4)cc3)[C@@H]2C1 | -40.49
COc1cccc(C#Cc2ccc([C@H]3[C@@H](CO)N4C(=O)CN(C(=O)C5CC5)C[C@H]34)cc2)c1 | -39.47
CC(C)CC#Cc1ccc2c(c1)O[C@@H](CN(C)C(=O)NC1CCCC1)[C@@H](C)CN([C@@H](C)CO)S2(=O)=O | -35.95
CC(C)(C)[S@](=O)N1Cc2cc(C(=O)NCC(F)(F)F)nc(-c3cccc(-c4cccc(F)c4)c3)c2[C@@H]1CCO | -22.92
CCC(=O)N(C)C[C@@H]1Oc2cc(C#Cc3ccccc3)ccc2S(=O)(=O)N([C@@H](C)CO)C[C@@H]1C | -45.64
COc1ccc([Si](C)(C)[C@H]2[C@H](CCO)O[C@@]3(C(=O)N(Cc4cccc(NC(C)=O)c4)c4ccccc43)[C@@H]2C)cc1 | -43.42
C[C@@H]1CN([C@@H](C)CO)C(=O)c2cc(NC(=O)NC3CCCCC3)ccc2O[C@@H](C)CCCCO[C@H]1CN(C)Cc1ccc(C(F)(F)F)cc1 | -32.51
COc1ccc(CN(C)C[C@H]2OCCCC[C@H](C)Oc3ccc(N(C)C)cc3C(=O)N([C@@H](C)CO)C[C@@H]2C)cc1 | -24.28
O=C(c1ccc(F)cc1)N1CCCCN2[C@H](CO)[C@@H](c3ccc(-c4ccccc4)cc3)[C@H]2C1 | -35.58
COc1ccc(-c2ccc3c(c2)[C@H]2[C@H](CCN2C(=O)C2CCCC2)[C@H](CO)N3C)cc1 | -47.35
C[C@H](O)C#Cc1ccc2c(c1)O[C@@H](CN(C)Cc1ccc(-c3ccccc3)cc1)[C@H](C)CN([C@@H](C)CO)S2(=O)=O | -63.28
CO[C@H]1CN(C)C(=O)c2cc(NC(=O)Nc3cccc(Cl)c3)ccc2OC[C@H](C)N(C)C[C@@H]1C | -39.5
C[C@@H]1CN([C@H](C)CO)C(=O)c2cc(NC(=O)CCC(F)(F)F)ccc2O[C@@H]1CN(C)Cc1ccc(Cl)c(Cl)c1 | -25
C[C@@H]1CN([C@H](C)CO)S(=O)(=O)c2ccc(C#CC3CC3)cc2O[C@H]1CN(C)Cc1ccccn1 | -34.26
C[C@H](CO)N1C[C@H](C)[C@H](CN(C)Cc2ccc(Oc3ccccc3)cc2)Oc2c(NC(=O)CCCCCC(=O)Nc3ccccc3N)cccc2C1=O | -46.3
Cc1ccc(S(=O)(=O)Nc2ccc3c(c2)C(=O)N([C@H](C)CO)C[C@H](C)[C@H](CN(C)CC2CCCCC2)OCCCC[C@H](C)O3)cc1 | -56.12
C[C@H]1CN([C@@H](C)CO)S(=O)(=O)c2ccc(C3=CCCCC3)cc2O[C@H]1CN(C)C(=O)Nc1ccc2c(c1)OCO2 | -48.17
C[C@H]1CN([C@@H](C)CO)C(=O)c2cccc(NC(=O)C3CC3)c2O[C@H]1CN(C)C | -34.65
CC(C)CC#Cc1ccc([C@H]2[C@H](CO)N3CCCCN(C(=O)NC4CCCC4)C[C@@H]23)cc1 | -62.32
C/C=C/c1ccc([C@@H]2[C@H](CO)N(CC3CC3)C23CN(C(=O)c2ccc4c(c2)OCO4)C3)cc1 | -35.16

3 of the entries, repeated:

| compound | activity change (Venus) (%) |
|---|---|
| `COc1ccc(-c2ccc3c(c2)[C@H]2[C@H](CCN2C(=O)C2CCCC2)[C@H](CO)N3C)cc1` | -47.35 |
| `C[C@H]1CN([C@@H](C)CO)S(=O)(=O)c2ccc(C3=CCCCC3)cc2O[C@H]1CN(C)C(=O)Nc1ccc2c(c1)OCO2` | -48.17 |
| `COc1cccc(C#Cc2ccc([C@H]3[C@@H](CO)N4C(=O)CN(C(=O)C5CC5)C[C@H]34)cc2)c1` | -39.47 |